Assay results as given in patent US20130053541A1, “METHODS FOR DISCOVERING MOLECULES THAT BIND TO PROTEINS” (LYNNTECH, INC., priority 2011, published 2013).
For some assays here: For at least one compound, name, drawing or mass did not settle the structure. Some of these results come from one statement about several compounds together.

Amino acid sequences for entries named in this document (tags omitted).
UniProt Q92731, whole entry, species assumed: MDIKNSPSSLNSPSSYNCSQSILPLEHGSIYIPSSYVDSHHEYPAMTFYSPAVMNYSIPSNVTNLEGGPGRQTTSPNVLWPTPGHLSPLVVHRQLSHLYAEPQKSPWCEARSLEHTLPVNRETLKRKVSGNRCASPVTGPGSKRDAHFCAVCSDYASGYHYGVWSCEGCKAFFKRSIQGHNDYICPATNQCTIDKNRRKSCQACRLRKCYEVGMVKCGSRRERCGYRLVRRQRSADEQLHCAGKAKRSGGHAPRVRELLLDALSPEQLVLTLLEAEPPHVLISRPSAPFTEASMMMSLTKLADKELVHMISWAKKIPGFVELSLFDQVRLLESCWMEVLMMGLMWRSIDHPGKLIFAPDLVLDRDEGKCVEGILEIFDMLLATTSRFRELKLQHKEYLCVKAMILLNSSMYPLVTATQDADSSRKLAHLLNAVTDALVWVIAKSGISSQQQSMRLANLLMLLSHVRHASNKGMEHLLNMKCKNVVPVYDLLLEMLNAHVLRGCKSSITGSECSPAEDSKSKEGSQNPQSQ

Experiments:
ESRRG = molecular target: T1, ESRRG (Homo sapiens, UniProt P62508); test: binding affinity on custom peptide microarray density chip, ESRRG; settings: N-terminal acetyl capped peptides
T1 sequence (P62508 1-458): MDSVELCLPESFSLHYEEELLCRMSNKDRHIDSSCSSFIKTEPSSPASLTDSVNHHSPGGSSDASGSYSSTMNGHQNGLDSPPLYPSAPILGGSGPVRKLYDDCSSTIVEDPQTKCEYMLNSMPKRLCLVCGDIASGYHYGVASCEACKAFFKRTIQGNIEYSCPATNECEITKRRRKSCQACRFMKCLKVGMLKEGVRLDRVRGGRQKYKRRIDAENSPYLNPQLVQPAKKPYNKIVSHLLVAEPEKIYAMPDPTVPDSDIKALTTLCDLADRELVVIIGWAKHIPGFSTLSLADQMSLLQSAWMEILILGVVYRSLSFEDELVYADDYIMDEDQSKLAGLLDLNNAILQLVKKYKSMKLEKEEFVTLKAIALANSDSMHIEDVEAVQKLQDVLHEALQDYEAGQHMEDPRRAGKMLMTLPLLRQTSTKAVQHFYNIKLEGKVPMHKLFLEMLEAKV

ERβ = ERβ (Homo sapiens, UniProt Q92731); settings: cited from earlier work

Work on Ac-AIRGALMG-NH2 (C-terminus assumed) yielded a Kd (ESRRG) of 0.0274 µM.
Ac-ANNLRLLH-NH2 (C-terminus assumed) showed a Kd (ESRRG) of 0.0289 µM.
Substance Ac-ANNSRLLH-NH2 (C-terminus assumed) has a Kd (ESRRG) of 0.0289 µM.
In the case of VSWFFE [EMP-1], the IC50 (ERβ) is listed as 100 to 250 µM.
For VSWFFED [EMP-2], the IC50 (ERβ) is listed as 100 to 250 µM.
